According to patent publication US9023861B2, “Anticancer combination of artemisinin-based drugs and other chemotherapeutic agents” (Sigma-Tau Industrie Farmaceutiche Riunite, S.p.A., priority 2009, dated 2015):
At least one compound was matched to its structure with a doubt left.

Key:
[1] = tested on: NCI-H460 non-small cell lung carcinoma; test: In vivo antitumor activity, s.c. xenograft in CD1 nude mice; conditions: DHA 200 mg/kg p.o., AZD2281 100 mg/kg i.p., qdx5/wx3w
Description: NCI-H460 non-small cell lung carcinoma cells were inoculated subcutaneously (s.c.) in the right flank of CD1 nude mice (3×10^6/0.1 ml of Medium 199). Treatments started three days after tumour injection. Mice were subdivided (10 mice/group) in the following experimental groups:
(§1) a) Vehicle (DMSO 10%) 10 ml/kg, i.p.;
b) DHA 200 mg/kg, p.o. qdx5/wx3w;
d) AZD2281+DHA (doses and schedules as above).
For the latter experiment DHA was administered immediately before AZD2281.
To evaluate the antitumour activity, tumour diameters were measured with a Vernier calliper according to the formula TV=d^2×D/2 where d and D are the shortest and longest diameters, respectively.
When tumours reached a volume of about 1500 mm^3, mice were sacrificed by cervical dislocation. The efficacy of the drug was assessed as the tumour volume inhibition according to the formula reported underneath: […]
Body weight recording was carried out to evaluate body weight loss as calculated in the equation underneath: […]
Wherein BW day x corresponds to the mean weight at day x of the experiment meanwhile BW day 1 corresponds to the mean weight at the first day of the experiment.

[2] = tested on: Molt-4 cells; conditions: cited from earlier work
[3] = tested on: HCT116 colon cancer cells; test: In vivo antitumour activity, s.c. xenograft in CD1 nude mice; conditions: DHA 200 mg/kg p.o., AZD2281 100 mg/kg i.p., ABT-888 50 mg/kg, qdx5/wx4w
Description: HCT116 colon cancer cells were inoculated subcutaneously (s.c.) in the right flank of CD1 nude mice (5×10^6/0.1 ml of Medium 199). Treatments started three days after tumour injection. Mice were subdivided (8 mice/group) in the following experimental groups:
as §1
b) DHA 200 mg/kg, p.o. qdx5/wx4w;
d) AZD2281+DHA (doses and schedules as above);
e) ABT-888 50 mg/kg, i.p. qdx5/wx4w;
f) ABT-888+DHA (doses and schedules as above).
DHA was administered immediately before AZD2281 or ABT-888.
The antitumour activity was evaluated according to the protocol reported hereinabove in example 3 when tumours reached a volume of about 500 mm^3.
Body weight recording was carried out to evaluate body weight loss according to the protocol reported hereinabove in example 3.

C[C@H]1[C@@H](O)O[C@@H]2O[C@@]3(C)CC[C@H]4[C@H](C)CC[C@@H]1[C@@]24OO3 [DHA, dihydroartemisinin]
antitumor effect when given singularly [1]: no antitumor effect | effect on Molt-4 cells ([2]; 10 μM DHA in the presence of 12 μM of holotransferrin, Singh 2005 paper): no effect | reduction in cell count ([2]; 10 μM DHA with 12 μM holotransferrin, at 8 hours, WO199634602): 75% | antitumor effect when given singularly [3]: None of them when given singularly did show any antitumor effect
